Data as given in patent publication EP4477673A1, “IMMUNOCONJUGATE AND USE THEREOF” (priority 2022, dated 2023).
No constants are given. Whether binding was seen depends on the method and setting. Some binding calls cover weakened binding; strength is not graded here.

Sequences of proteins named here, by UniProt entry; tags and fusion partners are left off. A change or cut given only in a name is not applied to a line headed by its entry.
UniProt Q15116: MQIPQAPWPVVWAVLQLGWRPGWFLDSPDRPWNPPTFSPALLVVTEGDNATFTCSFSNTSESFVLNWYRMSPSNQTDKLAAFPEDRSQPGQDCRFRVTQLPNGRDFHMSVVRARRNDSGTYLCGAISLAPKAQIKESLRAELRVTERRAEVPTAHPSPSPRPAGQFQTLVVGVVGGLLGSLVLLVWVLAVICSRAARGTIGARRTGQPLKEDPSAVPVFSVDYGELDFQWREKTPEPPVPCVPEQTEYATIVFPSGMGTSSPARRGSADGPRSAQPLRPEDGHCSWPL

T1: human IL-2Rβ/γ receptor heterodimer protein (Acrosystem, ILG-H5283) (human) (UniProt P14784+P31785)
T1 sequence (looked up) 1: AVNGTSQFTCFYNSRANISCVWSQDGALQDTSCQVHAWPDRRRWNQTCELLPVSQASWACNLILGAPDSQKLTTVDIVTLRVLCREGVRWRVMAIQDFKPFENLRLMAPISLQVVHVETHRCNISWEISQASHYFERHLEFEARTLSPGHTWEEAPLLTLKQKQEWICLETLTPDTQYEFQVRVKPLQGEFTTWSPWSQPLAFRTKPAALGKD
T1 sequence (looked up) 2: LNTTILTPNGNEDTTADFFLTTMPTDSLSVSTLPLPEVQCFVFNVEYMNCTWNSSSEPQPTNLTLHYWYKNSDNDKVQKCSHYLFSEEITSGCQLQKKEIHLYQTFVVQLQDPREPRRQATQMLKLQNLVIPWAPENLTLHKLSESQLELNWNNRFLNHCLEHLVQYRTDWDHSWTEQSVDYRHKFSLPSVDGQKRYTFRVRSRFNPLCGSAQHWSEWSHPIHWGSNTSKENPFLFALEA


Legend:
[1] = target: T1, human IL-2Rβ/γ receptor heterodimer protein (Acrosystem, ILG-H5283) (human); assay: SPR Biacore 8K
[2] = target: Human PD-1 antigen protein (Sino Biological, 10377-H08H) (human) (UniProt Q15116); assay: SPR Biacore 8K

binding [1] | binding [2] | Binder
binds | binds | A-PC (Fc fusion, also called positive control molecule A-PC; PD-1-IL-2v; not shown: IgG1 hinge (C220S) + Fc Knob chain (L234A, L235A, S354C, T366W, EU); D356/L358 or E356/M358 ver; IgG1 hinge (C220S) + Fc Hole chain (L234A, L235A, Y349C, T366S, L368A, Y407V; may have H435R, Y436F; EU)) chain (part 1 of 2): EVQLVESGGGLVQPGGSLRLSCAASGLTFSDYSMSWYRQAPGKGRELVAIISGSGVITHYVDSVKGRFTISRDNAKNTLYLQMRSLRAEDTAVYYCRAVSDWEDYWGQGTQVTVSS chain (part 2 of 2): GGGGSGGGGSGGGGSAPASSSTKKTQLQLEHLLLDLQMILQGISNYKNPKLTRMLTAKFYMPKKATELKHLQCLEEELKPLEEVLQGAQSKNFHLRPRDLISNINVIVLELKGSETTFMCEYADETATIVEFLNRWITFAQSIISTLT EVQLVESGGGLVQPGGSLRLSCAASGLTFSDYSMSWYRQAPGKGRELVAIISGSGVITHYVDSVKGRFTISRDNAKNTLYLQMRSLRAEDTAVYYCRAVSDWEDYWGQGTQVTVSS
 | binds | A-D20A (Fc fusion, also called PD-1-IL-2v (D20A); not shown: IgG1 hinge (C220S) + Fc Knob chain (L234A, L235A, S354C, T366W, EU); D356/L358 or E356/M358 ver; IgG1 hinge (C220S) + Fc Hole chain (L234A, L235A, Y349C, T366S, L368A, Y407V; may have H435R, Y436F; EU)) chain (part 1 of 2): EVQLVESGGGLVQPGGSLRLSCAASGLTFSDYSMSWYRQAPGKGRELVAIISGSGVITHYVDSVKGRFTISRDNAKNTLYLQMRSLRAEDTAVYYCRAVSDWEDYWGQGTQVTVSS chain (part 2 of 2): GGGGSGGGGSGGGGSAPASSSTKKTQLQLEHLLLALQMILQGISNYKNPKLTRMLTAKFYMPKKATELKHLQCLEEELKPLEEVLQGAQSKNFHLRPRDLISNINVIVLELKGSETTFMCEYADETATIVEFLNRWITFAQSIISTLT EVQLVESGGGLVQPGGSLRLSCAASGLTFSDYSMSWYRQAPGKGRELVAIISGSGVITHYVDSVKGRFTISRDNAKNTLYLQMRSLRAEDTAVYYCRAVSDWEDYWGQGTQVTVSS
